This note sets out measurements from publication PMC6430831.

For test [1], the target named is T1, FLAG-tagged GEF-H1 (Human pCMV6-Entry-GEF-H1), wild type (human) (UniProt Q92974).
T1 sequence: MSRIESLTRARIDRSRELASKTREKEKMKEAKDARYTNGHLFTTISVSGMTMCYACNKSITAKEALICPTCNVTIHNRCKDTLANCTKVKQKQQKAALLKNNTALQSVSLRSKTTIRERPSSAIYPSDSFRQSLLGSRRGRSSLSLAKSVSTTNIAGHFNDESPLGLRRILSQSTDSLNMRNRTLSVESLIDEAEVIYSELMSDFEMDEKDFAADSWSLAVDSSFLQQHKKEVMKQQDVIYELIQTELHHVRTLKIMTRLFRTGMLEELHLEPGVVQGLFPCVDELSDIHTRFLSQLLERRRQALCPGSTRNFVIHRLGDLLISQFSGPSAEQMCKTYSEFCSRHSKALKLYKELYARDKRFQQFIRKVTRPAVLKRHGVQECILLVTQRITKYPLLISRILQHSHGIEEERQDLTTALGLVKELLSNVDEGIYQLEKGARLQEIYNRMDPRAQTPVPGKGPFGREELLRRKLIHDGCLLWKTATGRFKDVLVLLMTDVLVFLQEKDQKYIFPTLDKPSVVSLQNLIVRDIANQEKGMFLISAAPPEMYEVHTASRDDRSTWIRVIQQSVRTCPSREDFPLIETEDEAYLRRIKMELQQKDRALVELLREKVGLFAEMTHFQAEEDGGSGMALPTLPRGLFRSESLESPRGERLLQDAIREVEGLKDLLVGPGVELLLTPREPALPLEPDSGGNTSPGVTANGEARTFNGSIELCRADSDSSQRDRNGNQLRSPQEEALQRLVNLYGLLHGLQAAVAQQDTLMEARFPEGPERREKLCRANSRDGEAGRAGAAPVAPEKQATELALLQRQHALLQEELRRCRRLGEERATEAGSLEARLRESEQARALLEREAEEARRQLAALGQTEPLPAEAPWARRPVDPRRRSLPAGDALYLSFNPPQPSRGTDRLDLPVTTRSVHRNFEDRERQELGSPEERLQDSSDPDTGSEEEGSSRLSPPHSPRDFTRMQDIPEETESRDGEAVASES
The test is described as follows: co-IP; HEK293T cells transfected with the indicated plasmids (GEF-H1 WT or variants with IRF5, IKKε, IKKβ; with or without RIPK2 or NOD2); precipitated with anti-GEF-H1, protein G agarose; lysis buffer 1% NP-40, 20 mM Tris-HCl pH 7.4, 150 mM NaCl; partners detected by western blot.

Test [2] addresses T2, GEF-H1 (Y394A) variant, exchange deficient (human) (UniProt Q92974).
T2 sequence: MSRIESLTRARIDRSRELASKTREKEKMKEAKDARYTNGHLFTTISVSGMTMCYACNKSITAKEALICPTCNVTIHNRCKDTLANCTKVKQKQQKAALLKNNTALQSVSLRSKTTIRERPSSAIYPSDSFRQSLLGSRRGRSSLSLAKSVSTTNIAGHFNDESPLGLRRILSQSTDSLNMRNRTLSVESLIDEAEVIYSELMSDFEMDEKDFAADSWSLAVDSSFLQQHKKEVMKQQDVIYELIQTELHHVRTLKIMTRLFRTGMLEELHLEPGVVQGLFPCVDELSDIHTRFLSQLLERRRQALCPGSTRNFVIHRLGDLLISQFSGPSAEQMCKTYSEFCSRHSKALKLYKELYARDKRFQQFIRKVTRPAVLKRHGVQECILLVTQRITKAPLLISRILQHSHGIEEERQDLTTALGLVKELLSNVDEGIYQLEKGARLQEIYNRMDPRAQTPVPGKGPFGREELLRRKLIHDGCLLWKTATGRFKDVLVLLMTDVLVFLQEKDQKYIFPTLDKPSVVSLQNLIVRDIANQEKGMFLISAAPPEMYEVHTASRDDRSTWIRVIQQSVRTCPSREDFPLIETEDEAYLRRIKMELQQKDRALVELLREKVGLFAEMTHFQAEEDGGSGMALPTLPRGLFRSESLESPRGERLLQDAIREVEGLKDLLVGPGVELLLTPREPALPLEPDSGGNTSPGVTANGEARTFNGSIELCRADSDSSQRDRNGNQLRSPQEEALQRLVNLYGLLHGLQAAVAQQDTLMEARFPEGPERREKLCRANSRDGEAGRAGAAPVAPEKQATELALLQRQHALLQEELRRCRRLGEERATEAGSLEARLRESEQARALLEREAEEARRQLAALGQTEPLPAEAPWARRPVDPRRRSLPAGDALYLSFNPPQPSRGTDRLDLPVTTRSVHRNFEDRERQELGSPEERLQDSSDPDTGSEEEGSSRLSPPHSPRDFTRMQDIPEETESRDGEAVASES
The description is as above.

Results are given in words; binding and its absence hold for the method and conditions named. In cells and extracts the contact can be indirect. Some binding calls cover weakened binding; strength is not graded here. Sequences can lack the tags named with a protein.

B1: human IKKε (pcDNA3-huIKKε-flag) (enzyme, UniProt Q14164 1-716)
chain: MQSTANYLWHTDDLLGQGATASVYKARNKKSGELVAVKVFNTTSYLRPREVQVREFEVLRKLNHQNIVKLFAVEETGGSRQKVLVMEYCSSGSLLSVLESPENAFGLPEDEFLVVLRCVVAGMNHLRENGIVHRDIKPGNIMRLVGEEGQSIYKLTDFGAARELDDDEKFVSVYGTEEYLHPDMYERAVLRKPQQKAFGVTVDLWSIGVTLYHAATGSLPFIPFGGPRRNKEIMYRITTEKPAGAIAGAQRRENGPLEWSYTLPITCQLSLGLQSQLVPILANILEVEQAKCWGFDQFFAETSDILQRVVVHVFSLSQAVLHHIYIHAHNTIAIFQEAVHKQTSVAPRHQEYLFEGHLCVLEPSVSAQHIAHTTASSPLTLFSTAIPKGLAFRDPALDVPKFVPKVDLQADYNTAKGVLGAGYQALRLARALLDGQELMFRGLHWVMEVLQATCRRTLEVARTSLLYLSSSLGTERFSSVAGTPEIQELKAAAELRSRLRTLAEVLSRCSQNITETQESLSSLNRELVKSRDQVHEDRSIQQIQCCLDKMNFIYKQFKKSRMRPGLGYNEEQIHKLDKVNFSHLAKRLLQVFQEECVQKYQASLVTHGKRMRVVHETRNHLRLVGCSVAACNTEAQGVQESLSKLLEELSHQLLQDRAKGAQASPPPIAPYPSPTRKDLLLHMQELCEGMKLLASDLLDNNRIIERLNRVPAPPDV
With B1, the binding result in test [1] and in test [2] was “binds” each time.

B2: human IKKβ (pcDNA3.1-huIKKβ-HA) (enzyme, UniProt O14920 1-756)
chain: MSWSPSLTTQTCGAWEMKERLGTGGFGNVIRWHNQETGEQIAIKQCRQELSPRNRERWCLEIQIMRRLTHPNVVAARDVPEGMQNLAPNDLPLLAMEYCQGGDLRKYLNQFENCCGLREGAILTLLSDIASALRYLHENRIIHRDLKPENIVLQQGEQRLIHKIIDLGYAKELDQGSLCTSFVGTLQYLAPELLEQQKYTVTVDYWSFGTLAFECITGFRPFLPNWQPVQWHSKVRQKSEVDIVVSEDLNGTVKFSSSLPYPNNLNSVLAERLEKWLQLMLMWHPRQRGTDPTYGPNGCFKALDDILNLKLVHILNMVTGTIHTYPVTEDESLQSLKARIQQDTGIPEEDQELLQEAGLALIPDKPATQCISDGKLNEGHTLDMDLVFLFDNSKITYETQISPRPQPESVSCILQEPKRNLAFFQLRKVWGQVWHSIQTLKEDCNRLQQGQRAAMMNLLRNNSCLSKMKNSMASMSQQLKAKLDFFKTSIQIDLEKYSEQTEFGITSDKLLLAWREMEQAVELCGRENEVKLLVERMMALQTDIVDLQRSPMGRKQGGTLDDLEEQARELYRRLREKPRDQRTEGDSQEMVRLLLQAIQSFEKKVRVIYTQLSKTVVCKQKALELLPKVEEVVSLMNEDEKTVVRLQEKRQKELWNLLKIACSKVRGPVSGSPDSMNASRLSQPGQLMSQPSTASNSLPEPAKKSEELVAEAHNLCTLLENAIQDTVREQDQSFTALDWSWLQTEEEEHSCLEQAS
As for B2, the binding result in test [1] and in test [2] was “binds” in each case.
